Data taken from PubChem BioAssay AID853 (Columbia University Molecular Screening Center, 2007).
Hit rate of the full screen: of about 47,000 compounds, about 200 (0.43%) were called active. Inconclusive results, whose numbers are uncertain, are shown with a selection of clear calls.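 Rule for the calls: active = inhibition of aggregate fluorescence above about 70%, also judged a hit by eye on the cell image (limit read from the data, passing the limit was not always enough); inconclusive = no rule stated for this call; inactive = not judged a hit on image review.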

assay: removal of polyQ htt aggregates in HeLa – imaging, HeLa Exon1htt(103Q)mCFP, confocal imaging, primary screen (AID 853); conditions: aggregate imaging, at 1.5 µM, stronger effect = higher value;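 note: cells exposed to compound for three days before fixation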

| Compound | inhibition |
| --- | --- |
| CN1C(=O)C(=Cc2ccccc2Oc2ccc(Cl)cc2)C(=O)N(C)C1=O | active: 82.2% |
| OCCOCC#CCN1CCOCC1 | inactive: 2% |
| CCCCc1ccc2[nH]cc(CCN)c2c1 | active: 74.8% |
| Cc1cc(NC(=O)COC(=O)c2c(C)nn(Cc3ccccc3)c2Cl)no1 | inconclusive: 73.1% |
| N#Cc1ccc(Cn2cc(C(=O)c3ccco3)c3ccccc32)cc1 | active: 83.1% |
| Cc1nn(C2CCOC(C)(C)C2)c2c1C(c1ccc(OC(C)C)cc1)SCC(=O)N2 (stereo not drawn) | inactive: 23.4% |
| CCOC(=O)c1c(NC(=O)C(c2ccccc2)c2ccccc2)sc2c1C1CCN2CC1 | active: 74.9% |
| CCCCC12CNCC(C)(CNC1)C2=O | inactive: 41% |
| CC1(C)CC(=O)C=C(NCCN2CCN(C(=O)Cc3ccc(Cl)cc3)CC2)C1 | inconclusive: 71.1% |
| Cc1nnc(SCc2nc3ccccc3c(=O)n2-c2ccccc2Cl)n1N | active: 71.6% |
| CC(C)n1cc(C(=O)N(CC(=O)NC2CCCC2)Cc2ccccc2)cn1 | inconclusive: 86.8% |
| CCN1CCC(O)(c2ccccc2)C(C(=O)c2ccccc2)C1 (stereo not drawn) | active: 86.6% |
| O=C(NC(Cc1ccccc1)C(=O)N1CCC2(CC1)OCCO2)C1CCCCC1 (stereo not drawn) | inconclusive: 86.1% |
| COc1ccc(C2=NCC(=O)N(CC(=O)NCc3ccco3)c3sc4c(c32)CCCC4)cc1OC | inactive: -78.8% |
| CCCCc1nc(N2CCNCC2)c(C#N)c2c1CSC(C)(C)C2 | inactive: -23.1% |
| CCn1ncc(/C=C2/CC3C4CC=C5CC(O)CCC5(C)C4CCC3(C)C2=O)c1C (stereo not drawn) | inactive: 3.5% |
| Cc1nnc2n1-c1ccc(Br)cc1C(c1ccccc1Cl)=NC2 | inconclusive: 70.6% |
| CN1C(=O)C(Cc2cccc3ccccc23)C(=O)N(C)C1=O | inconclusive: 85.5% |

Taken from above.
inhibition, Cc1cc(NC(=O)COC(=O)c2c(C)nn(Cc3ccccc3)c2Cl)no1 reads inconclusive: 73.1%
inhibition, CC1(C)CC(=O)C=C(NCCN2CCN(C(=O)Cc3ccc(Cl)cc3)CC2)C1 reads inconclusive: 71.1%
